Results on four substances are retold here after article PMC4245974.

The chains behind the UniProt entries cited, without tags or fusion partners. Where a name states a change or a piece, a line headed by the entry shows the natural chain unless it says otherwise. Residues count along the entry.
UniProt Q9HAW4: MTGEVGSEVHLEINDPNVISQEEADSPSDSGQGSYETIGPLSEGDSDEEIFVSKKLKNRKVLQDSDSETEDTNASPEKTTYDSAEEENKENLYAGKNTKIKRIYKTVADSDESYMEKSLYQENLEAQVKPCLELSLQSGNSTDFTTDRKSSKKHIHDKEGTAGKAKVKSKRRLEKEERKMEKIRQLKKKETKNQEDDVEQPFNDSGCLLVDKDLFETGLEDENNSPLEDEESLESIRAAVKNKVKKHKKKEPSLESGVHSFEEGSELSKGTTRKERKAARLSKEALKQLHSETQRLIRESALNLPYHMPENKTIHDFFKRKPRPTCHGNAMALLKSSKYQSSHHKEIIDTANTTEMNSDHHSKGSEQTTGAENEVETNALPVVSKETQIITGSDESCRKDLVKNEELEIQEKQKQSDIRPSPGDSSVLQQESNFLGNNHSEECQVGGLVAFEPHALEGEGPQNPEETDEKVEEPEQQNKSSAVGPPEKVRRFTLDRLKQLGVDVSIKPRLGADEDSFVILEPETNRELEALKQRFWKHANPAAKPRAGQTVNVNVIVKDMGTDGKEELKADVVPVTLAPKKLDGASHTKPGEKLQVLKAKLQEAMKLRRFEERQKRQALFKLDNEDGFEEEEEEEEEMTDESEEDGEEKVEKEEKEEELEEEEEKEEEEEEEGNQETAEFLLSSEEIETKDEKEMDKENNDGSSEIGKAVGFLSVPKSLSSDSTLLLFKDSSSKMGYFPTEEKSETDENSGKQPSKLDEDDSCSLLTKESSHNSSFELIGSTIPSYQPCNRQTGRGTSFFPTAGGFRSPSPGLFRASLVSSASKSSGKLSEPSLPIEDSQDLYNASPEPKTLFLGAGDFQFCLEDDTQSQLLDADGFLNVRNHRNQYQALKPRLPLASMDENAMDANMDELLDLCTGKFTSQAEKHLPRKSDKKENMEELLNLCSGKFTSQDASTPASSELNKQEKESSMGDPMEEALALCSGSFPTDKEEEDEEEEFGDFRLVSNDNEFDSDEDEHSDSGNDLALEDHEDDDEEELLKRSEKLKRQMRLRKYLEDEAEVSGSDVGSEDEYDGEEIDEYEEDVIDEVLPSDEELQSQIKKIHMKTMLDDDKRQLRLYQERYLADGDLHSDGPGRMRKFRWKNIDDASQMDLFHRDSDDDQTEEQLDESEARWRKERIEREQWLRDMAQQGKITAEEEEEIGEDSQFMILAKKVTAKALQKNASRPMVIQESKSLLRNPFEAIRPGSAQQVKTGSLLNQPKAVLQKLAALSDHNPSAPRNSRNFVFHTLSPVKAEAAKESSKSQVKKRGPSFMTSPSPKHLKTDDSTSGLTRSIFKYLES
FLAG-CLASPIN N-terminus (1-330 AAs): residues 1-330 of Q9HAW4
UniProt O95714: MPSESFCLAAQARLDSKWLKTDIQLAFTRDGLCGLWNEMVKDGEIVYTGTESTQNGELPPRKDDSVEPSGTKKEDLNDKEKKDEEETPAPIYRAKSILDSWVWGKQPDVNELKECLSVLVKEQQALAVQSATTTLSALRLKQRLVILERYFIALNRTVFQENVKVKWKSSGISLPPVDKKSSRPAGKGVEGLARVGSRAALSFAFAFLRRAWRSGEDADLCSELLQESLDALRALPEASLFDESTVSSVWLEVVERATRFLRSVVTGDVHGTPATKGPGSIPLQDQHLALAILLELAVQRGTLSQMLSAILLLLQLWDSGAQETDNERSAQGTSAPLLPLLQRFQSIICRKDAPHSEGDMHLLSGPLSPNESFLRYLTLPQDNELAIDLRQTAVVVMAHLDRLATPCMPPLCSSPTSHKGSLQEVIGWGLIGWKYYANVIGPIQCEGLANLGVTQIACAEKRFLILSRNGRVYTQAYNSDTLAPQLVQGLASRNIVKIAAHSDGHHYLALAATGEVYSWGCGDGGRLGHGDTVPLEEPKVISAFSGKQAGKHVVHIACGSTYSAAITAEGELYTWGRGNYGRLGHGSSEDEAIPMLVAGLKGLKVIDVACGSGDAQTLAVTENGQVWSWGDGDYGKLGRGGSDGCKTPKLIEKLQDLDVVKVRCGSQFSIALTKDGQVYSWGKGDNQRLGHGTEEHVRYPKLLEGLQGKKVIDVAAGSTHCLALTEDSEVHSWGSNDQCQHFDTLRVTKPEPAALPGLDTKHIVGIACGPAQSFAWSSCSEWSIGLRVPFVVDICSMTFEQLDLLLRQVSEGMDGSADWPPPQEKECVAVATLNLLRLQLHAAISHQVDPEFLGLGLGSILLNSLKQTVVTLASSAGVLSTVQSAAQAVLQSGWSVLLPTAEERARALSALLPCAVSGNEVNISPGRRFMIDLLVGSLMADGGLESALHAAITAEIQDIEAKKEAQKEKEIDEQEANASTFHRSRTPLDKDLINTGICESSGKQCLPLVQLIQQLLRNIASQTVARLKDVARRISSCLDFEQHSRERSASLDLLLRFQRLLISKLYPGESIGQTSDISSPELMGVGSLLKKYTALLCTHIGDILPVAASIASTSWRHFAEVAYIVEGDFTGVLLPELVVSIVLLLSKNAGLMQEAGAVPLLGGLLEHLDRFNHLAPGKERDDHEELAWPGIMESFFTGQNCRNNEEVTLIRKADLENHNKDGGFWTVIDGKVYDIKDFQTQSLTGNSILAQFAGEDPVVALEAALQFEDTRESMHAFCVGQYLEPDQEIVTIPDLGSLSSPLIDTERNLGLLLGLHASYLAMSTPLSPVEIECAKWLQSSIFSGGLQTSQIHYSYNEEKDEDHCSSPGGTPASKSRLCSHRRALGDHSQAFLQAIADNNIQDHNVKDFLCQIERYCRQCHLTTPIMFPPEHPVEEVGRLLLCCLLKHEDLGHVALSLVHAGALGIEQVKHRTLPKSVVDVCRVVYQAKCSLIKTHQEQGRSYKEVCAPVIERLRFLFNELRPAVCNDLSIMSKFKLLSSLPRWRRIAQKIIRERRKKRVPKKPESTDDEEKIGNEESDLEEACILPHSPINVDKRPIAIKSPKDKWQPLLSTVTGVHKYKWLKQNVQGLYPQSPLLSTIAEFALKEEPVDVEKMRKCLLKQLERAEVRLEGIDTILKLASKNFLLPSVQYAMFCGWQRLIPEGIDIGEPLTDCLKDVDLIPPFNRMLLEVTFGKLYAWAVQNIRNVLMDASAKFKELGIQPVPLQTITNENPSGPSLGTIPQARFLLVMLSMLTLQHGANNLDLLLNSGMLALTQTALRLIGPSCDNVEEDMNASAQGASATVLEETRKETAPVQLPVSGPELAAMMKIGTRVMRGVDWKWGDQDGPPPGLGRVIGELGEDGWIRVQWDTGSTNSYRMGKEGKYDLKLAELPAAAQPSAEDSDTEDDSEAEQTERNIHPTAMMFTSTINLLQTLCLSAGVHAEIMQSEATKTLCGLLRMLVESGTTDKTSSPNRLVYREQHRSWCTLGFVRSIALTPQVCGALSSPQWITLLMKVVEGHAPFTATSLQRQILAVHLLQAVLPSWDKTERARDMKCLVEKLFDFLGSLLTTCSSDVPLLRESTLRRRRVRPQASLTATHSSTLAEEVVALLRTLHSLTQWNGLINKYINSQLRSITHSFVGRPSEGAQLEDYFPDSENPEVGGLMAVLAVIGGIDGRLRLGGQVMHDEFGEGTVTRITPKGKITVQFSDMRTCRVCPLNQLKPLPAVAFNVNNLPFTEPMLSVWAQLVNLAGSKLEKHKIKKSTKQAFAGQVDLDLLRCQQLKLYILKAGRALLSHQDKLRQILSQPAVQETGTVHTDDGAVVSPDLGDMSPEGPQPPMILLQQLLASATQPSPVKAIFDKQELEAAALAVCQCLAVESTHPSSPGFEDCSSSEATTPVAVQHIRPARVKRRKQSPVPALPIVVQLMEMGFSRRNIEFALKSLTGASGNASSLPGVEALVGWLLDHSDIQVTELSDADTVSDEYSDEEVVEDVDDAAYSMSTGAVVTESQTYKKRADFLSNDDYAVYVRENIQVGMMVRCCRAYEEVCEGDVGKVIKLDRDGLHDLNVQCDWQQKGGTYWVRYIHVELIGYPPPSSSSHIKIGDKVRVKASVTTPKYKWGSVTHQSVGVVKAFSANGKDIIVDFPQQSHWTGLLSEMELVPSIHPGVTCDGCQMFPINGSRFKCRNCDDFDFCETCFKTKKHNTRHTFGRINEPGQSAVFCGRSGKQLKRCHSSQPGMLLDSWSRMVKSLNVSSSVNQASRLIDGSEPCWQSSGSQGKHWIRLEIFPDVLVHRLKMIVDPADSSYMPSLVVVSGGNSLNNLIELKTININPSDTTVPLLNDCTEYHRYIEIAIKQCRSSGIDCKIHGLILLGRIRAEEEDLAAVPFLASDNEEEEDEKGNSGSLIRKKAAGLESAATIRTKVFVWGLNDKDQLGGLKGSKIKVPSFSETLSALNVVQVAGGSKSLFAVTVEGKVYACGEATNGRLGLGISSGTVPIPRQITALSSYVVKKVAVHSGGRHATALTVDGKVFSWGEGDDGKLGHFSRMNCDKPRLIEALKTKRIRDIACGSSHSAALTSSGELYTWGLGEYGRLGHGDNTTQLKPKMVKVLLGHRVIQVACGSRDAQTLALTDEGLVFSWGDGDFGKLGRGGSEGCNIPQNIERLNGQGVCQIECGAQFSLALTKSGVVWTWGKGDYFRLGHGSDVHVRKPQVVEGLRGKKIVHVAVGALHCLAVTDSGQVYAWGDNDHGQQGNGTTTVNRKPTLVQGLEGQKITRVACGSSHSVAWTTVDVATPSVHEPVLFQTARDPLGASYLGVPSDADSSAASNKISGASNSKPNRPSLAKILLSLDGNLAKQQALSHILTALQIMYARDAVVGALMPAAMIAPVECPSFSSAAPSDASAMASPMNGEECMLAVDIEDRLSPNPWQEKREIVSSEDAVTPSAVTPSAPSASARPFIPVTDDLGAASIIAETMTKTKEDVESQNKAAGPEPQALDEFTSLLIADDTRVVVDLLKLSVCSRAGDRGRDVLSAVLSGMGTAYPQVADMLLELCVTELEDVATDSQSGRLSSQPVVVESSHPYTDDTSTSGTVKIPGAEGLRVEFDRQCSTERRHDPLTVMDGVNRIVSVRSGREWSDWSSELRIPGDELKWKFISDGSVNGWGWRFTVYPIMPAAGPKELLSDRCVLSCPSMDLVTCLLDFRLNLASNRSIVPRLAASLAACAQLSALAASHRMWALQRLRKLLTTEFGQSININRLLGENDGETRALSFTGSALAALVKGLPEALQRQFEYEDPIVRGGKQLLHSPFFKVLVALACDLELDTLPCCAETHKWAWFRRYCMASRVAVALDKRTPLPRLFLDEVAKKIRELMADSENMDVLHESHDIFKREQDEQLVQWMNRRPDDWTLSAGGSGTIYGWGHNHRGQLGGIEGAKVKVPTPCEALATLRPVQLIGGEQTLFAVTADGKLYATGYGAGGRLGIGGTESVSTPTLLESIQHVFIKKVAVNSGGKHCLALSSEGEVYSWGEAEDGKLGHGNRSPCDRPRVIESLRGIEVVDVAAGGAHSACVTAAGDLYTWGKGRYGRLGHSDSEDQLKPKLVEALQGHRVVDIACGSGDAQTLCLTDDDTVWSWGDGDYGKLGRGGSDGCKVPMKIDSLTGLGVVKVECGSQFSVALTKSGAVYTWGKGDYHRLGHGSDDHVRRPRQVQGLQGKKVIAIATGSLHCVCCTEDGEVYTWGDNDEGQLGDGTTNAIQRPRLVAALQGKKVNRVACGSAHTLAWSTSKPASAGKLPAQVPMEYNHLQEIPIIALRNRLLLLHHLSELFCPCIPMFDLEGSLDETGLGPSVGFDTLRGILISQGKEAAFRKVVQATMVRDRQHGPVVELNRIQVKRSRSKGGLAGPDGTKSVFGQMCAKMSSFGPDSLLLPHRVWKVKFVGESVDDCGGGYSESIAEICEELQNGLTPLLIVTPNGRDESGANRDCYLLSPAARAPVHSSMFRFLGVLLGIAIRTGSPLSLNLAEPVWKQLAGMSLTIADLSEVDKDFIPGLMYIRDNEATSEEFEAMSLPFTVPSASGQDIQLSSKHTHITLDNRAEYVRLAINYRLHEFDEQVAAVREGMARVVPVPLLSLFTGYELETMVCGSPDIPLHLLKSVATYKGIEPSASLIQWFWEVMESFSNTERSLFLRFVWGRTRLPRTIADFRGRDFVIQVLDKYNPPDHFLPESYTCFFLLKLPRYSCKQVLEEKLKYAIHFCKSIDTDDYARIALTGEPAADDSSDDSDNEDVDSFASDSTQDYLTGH

These are yes or no findings as the source states them, for the method shown. In cells and extracts the contact can be indirect. Some binding calls cover weakened binding; strength is not graded here.

One assay has as its target FLAG-CLASPIN (UniProt Q9HAW4). Description: co-IP; lysates of 293T cells co-transfected with MYC-USP20 and FLAG-CLASPIN or its fragments; anti-FLAG immunoprecipitation, anti-MYC immunoblot. (Immunoblotting shows a protein as a band on a membrane.)
Assay [1] addresses FLAG-CLASPIN N-terminus (1-330 AAs) (UniProt Q9HAW4). The description is as above.
The next assay deals with FLAG-USP20 (UniProt Q9Y2K6). Description: co-IP; 293T cells expressing FLAG-USP20 or FLAG-USP20(4SA), treated with HU for 3 h or not; FLAG-USP20 immunocomplex blotted for HERC2.
Assay [2] deals with USP20 (endogenous) (human (endogenous in 293T)) (UniProt Q9Y2K6). Description: co-IP; total lysates of 293T cells, endogenous proteins; immunoprecipitation with anti-USP20, anti-HERC2 or anti-ATR antibody, immunoblotting; for HERC2-USP20 also mock or HU (2 mM) treatment for 3 h.
Assay [3] concerns the target HERC2 (endogenous) (human (endogenous in 293T)) (UniProt O95714). The assay is described as above.
Assay [4] deals with ATR (ataxia telangiectasia and Rad3-related protein) (human (endogenous in 293T)) (UniProt Q13535). The assay is described as above.

With “MYC-USP20 (from UniProt Q9Y2K6 1-914) (enzyme)”, the binding result (with FLAG-CLASPIN; in assay [1]) was “binds” in each case.

For the substance “HERC2 (endogenous) (from UniProt O95714 1-4834) (enzyme)”, the binding entry (with FLAG-USP20; in assay [2]) was “binds” throughout.

In the case of “CLASPIN (endogenous) (from UniProt Q9HAW4 1-1339)”, the binding entry in assay [2] and in assay [3] was “binds” in each case.

Take “USP20 (endogenous) (from UniProt Q9Y2K6 1-914) (enzyme)”: the binding entry in assay [4] and in assay [3] was “binds” throughout.
